According to paper PMC3865339:
The exact form of at least one protein or probe is not confirmed. For some assays here: No signal at the amounts used counts as a negative. For some assays here: Results from cells or extracts need not show a direct contact. For some assays here: At least one verdict rests on a figure or table, not on a statement of the authors.

By UniProt entry, the sequences of proteins in these tests, tags left out.
UniProt Q99497, whole entry: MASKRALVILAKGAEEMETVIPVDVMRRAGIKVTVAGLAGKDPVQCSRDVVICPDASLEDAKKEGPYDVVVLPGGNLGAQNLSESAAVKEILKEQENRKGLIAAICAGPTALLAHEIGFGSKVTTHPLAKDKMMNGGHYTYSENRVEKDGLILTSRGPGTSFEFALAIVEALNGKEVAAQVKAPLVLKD
UniProt P08047, whole entry: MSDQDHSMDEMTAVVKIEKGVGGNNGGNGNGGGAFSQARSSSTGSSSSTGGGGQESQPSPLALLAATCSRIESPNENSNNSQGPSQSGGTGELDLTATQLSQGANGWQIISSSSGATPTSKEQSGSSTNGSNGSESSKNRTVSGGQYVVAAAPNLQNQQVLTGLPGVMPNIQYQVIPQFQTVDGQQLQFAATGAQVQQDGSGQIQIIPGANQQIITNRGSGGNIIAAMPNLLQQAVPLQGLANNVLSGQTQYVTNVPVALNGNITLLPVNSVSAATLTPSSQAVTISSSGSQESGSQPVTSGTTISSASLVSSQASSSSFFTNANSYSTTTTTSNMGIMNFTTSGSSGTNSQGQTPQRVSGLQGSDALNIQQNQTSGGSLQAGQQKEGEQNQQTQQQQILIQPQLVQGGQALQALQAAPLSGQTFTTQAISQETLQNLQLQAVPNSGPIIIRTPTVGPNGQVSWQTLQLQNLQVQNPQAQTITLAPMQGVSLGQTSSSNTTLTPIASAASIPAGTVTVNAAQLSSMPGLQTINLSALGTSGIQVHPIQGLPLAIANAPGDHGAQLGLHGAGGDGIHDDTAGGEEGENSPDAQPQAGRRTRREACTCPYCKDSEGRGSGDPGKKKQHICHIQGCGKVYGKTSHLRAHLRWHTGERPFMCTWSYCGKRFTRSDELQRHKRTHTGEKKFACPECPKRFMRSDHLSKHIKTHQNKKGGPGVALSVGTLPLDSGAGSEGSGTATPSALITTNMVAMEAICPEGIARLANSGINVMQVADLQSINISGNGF

Tests used:
recombinant DJ-1 = recombinant DJ-1 (UniProt Q99497); assay: EMSA; settings: 100 ng recombinant DJ-1 alone; EMSA with IRDye800 probe as described previously (ref 26), buffer not given; antibody incubation 30 min at 4 C; recombinant protein; label: IRDye800 (probe), unlabeled as competitor
RREB1 + DJ-1 [1] = assay: EMSA supershift; settings: SH-SY5Y nuclear extract, anti-RREB1 supershift, anti-DJ-1 altered shift; EMSA with IRDye800 probe as described previously (ref 26), buffer not given; antibody incubation 30 min at 4 C; protein in an extract; label: IRDye800 (probe), unlabeled as competitor
Sp1 [2] = molecular target: Sp1 (UniProt P08047); assay: EMSA with antibody; settings: SH-SY5Y nuclear extract, anti-Sp1 reduces shifted band; EMSA with IRDye800 probe as described previously (ref 26), buffer not given; antibody incubation 30 min at 4 C; protein in an extract; label: IRDye800 (probe), unlabeled as competitor
RREB1 + DJ-1 [3] = assay: competition with a labelled probe; settings: 50x and 100x unlabeled mutant vs labeled N1, SH-SY5Y nuclear extract, proteins identified by antibodies in Fig. 3D; EMSA with IRDye800 probe as described previously (ref 26), buffer not given; antibody incubation 30 min at 4 C; protein in an extract; label: unlabeled competitor
Sp1 [4] = molecular target: Sp1 (UniProt P08047); assay: competition with a labelled probe; settings: 50x and 100x unlabeled mutant vs labeled N1, SH-SY5Y nuclear extract, protein identified by antibody in Fig. 3D; EMSA with IRDye800 probe as described previously (ref 26), buffer not given; antibody incubation 30 min at 4 C; protein in an extract; label: unlabeled competitor

Sequence | binding result (recombinant DJ-1) | binding result (RREB1 + DJ-1 [1]) | binding result (Sp1 [2]) | binding result (RREB1 + DJ-1 [3]) | binding result (Sp1 [4])
GCCGCCCCCCCAACCCCCCCACCCCGCCTC (double strand) [hRRE (CCK promoter RRE/Sp1, wild type)] | no binding | binds | binds |  | 
GCCGCCCCCCCGGCCCCCCCACCCCTCTTC (double strand) [hRREm (mutated RRE and Sp1)] |  |  |  | no binding | no binding
